Here are results for one molecule from US20070238638A1 (TANOX, published 2007).

No constants are given. Whether binding was seen depends on the method and setting. Some binding calls cover weakened binding; strength is not graded here.

The assay addresses T1, NFκB family member p50 (human), P19838.
T1 chain: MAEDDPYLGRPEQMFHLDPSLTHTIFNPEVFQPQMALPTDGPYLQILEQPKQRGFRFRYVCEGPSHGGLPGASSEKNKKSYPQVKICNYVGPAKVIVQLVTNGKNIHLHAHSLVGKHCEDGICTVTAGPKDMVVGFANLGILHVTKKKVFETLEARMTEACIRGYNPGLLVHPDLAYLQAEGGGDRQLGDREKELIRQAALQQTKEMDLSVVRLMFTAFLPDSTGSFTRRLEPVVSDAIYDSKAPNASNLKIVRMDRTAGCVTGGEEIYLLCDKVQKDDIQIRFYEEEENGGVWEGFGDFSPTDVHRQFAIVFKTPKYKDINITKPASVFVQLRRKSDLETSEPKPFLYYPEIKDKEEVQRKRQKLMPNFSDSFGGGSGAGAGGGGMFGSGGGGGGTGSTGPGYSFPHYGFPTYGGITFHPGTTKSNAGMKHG
Briefly: EMSA gel supershift, HT29 nuclear extract on κB1 oligonucleotide. As to conditions: remark: other sources report otherwise.

B1: NFκB family member p50 (other, human, UniProt P19838 1-433, looked up)
chain: T1 chain
notes: also called p50 NFκB protein
As to B1, the binding result is on record as “binds”.
